Assay results as given in patent US8969542B2, “HPV polyepitope constructs and uses thereof” (priority 2007, dated 2015).
Where a SMILES comes first, the peptide text is derived from it.

system: purified HLA class II (HLA-DR) molecules; assay: HLA class II (HLA-DR) competition binding assay, purified HLA (allele not specified); set-up: species or system human; settings: number of HLA-DR alleles of Table 7 bound

`CC[C@H](C)[C@H](NC(=O)[C@H](CS)NC(=O)[C@H](CCCNC(=N)N)NC(=O)CNC(=O)[C@@H](N)[C@@H](C)O)C(=O)N[C@@H](C)C(=O)N[C@@H](CS)C(=O)N[C@@H](Cc1c[nH]c2ccccc12)C(=O)N[C@@H](CCCNC(=N)N)C(=O)N[C@@H](CCCNC(=N)N)C(=O)N1CCC[C@H]1C(=O)N[C@@H](CCCNC(=N)N)C(=O)N[C@H](C(=O)N[C@@H](CCC(=O)O)C(=O)N[C@H](C(=O)O)[C@@H](C)O)[C@@H](C)O` [compound 110] (H-TGRCIACWRRPRTET-OH) and `CC[C@H](C)[C@H](NC(=O)[C@H](CO)NC(=O)[C@H](Cc1c[nH]cn1)NC(=O)[C@@H](N)Cc1ccccc1)C(=O)N[C@@H](C)C(=O)NCC(=O)N[C@@H](CCC(N)=O)C(=O)N[C@@H](Cc1ccc(O)cc1)C(=O)N[C@@H](CCCNC(=N)N)C(=O)NCC(=O)N[C@@H](CCC(N)=O)C(=O)N[C@@H](CS)C(=O)N[C@@H](CC(N)=O)C(=O)N[C@H](C(=O)N[C@@H](CS)C(=O)O)[C@@H](C)O` [compound 119] (H-FHSIAGQYRGQCNTC-OH) are the same in No. alleles bound: 6 for the first, 6 for the second.

First: LQAIELQLTLETIYN (Human papillomavirus type 16) [SEQ ID 92]
Second: CC[C@H](C)[C@H](NC(=O)[C@H](CS)NC(=O)[C@H](CC(=O)O)NC(=O)[C@H](CCCNC(=N)N)NC(=O)[C@H](Cc1ccc(O)cc1)NC(=O)[C@@H](NC(=O)[C@@H](NC(=O)[C@H](CS)NC(=O)[C@@H](N)CC(C)C)[C@@H](C)CC)C(C)C)C(=O)N[C@@H](C)C(=O)N[C@@H](Cc1ccc(O)cc1)C(=O)N[C@@H](C)C(=O)N[C@@H](C)C(=O)N[C@@H](CS)C(=O)N[C@@H](Cc1c[nH]cn1)C(=O)O [compound 118]
The No. alleles bound of the first is higher: 9 for the first, 7 for the second.
